We go through one substance from publication PMC3215702, “The Nuclear Pore Complex Mediates Binding of the Mig1 Repressor to Target Promoters” (PLoS ONE, 2011).

The chains behind the UniProt entries cited, without tags or fusion partners.
UniProt P27705: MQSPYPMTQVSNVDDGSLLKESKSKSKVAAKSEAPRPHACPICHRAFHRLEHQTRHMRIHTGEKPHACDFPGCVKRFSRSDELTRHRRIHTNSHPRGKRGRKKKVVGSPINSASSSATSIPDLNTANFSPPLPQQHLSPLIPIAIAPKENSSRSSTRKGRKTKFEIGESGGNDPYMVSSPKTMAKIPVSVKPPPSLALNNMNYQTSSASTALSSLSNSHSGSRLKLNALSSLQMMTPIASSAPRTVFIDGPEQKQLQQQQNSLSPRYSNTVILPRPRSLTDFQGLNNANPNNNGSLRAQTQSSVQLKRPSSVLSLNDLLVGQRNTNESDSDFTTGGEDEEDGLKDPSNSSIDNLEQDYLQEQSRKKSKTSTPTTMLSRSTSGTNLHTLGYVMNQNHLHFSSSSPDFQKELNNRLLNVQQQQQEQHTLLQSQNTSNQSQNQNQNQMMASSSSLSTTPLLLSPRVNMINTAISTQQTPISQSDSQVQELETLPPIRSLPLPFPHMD
UniProt P52891: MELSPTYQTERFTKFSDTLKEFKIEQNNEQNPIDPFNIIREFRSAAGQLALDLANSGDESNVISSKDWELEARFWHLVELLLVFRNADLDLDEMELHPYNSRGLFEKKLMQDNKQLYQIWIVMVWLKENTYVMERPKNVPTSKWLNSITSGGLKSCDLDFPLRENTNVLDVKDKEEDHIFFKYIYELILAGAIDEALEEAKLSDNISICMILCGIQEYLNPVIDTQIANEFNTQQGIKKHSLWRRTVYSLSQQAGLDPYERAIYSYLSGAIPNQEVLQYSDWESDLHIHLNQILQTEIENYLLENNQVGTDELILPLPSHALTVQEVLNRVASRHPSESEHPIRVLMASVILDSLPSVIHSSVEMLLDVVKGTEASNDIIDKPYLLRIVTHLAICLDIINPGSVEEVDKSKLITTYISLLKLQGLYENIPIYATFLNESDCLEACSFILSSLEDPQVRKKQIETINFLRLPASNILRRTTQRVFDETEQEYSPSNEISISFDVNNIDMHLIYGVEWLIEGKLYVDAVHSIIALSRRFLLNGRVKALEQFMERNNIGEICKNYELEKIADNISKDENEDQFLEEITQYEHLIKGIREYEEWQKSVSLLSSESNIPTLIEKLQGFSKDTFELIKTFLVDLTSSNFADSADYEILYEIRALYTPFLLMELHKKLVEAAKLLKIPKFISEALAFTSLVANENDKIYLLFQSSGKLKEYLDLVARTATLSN

The target in the assay is T1, Mig1-GFP fusion protein (S. cerevisiae, UniProt P27705 1-504).
T1 construct: Mig1, glucose-regulated repressor of S. cerevisiae; GFP tag integrated at the MIG1 locus; Called a fully functional fusion; also called GFP-tagged Mig1; source: S. cerevisiae, Mig1-GFP strain from the Yeast GFP Clone collection (Invitrogen), integrated GFP tag; in crude lysate or cell fractions
Put plainly: co-IP; anti-GFP antibody added to crude lysate of glucose-grown cells, protein A sepharose; eluate blotted and probed with anti-lexA antibody (anti-GFP as control).

These are yes or no findings as the source states them, for the method shown. Binding seen in cells or lysates may run through a third protein. Some results given as binding are weak or reduced against the parent protein; the word gives no strength.

As for Nup84-lexA (from UniProt P52891 1-726), the binding entry is given as “binds”.
